Tests used:
[1] = general procedure: Fmoc solid-phase peptide synthesis; K(Boc)-Rink amide resin; TBTU/DIPEA; propiolic acid coupled with HATU without DIPEA; details: whole synthesis, scale 2 g resin
[2] = general procedure: Fmoc solid-phase peptide synthesis; D(Boc)-Wang resin; TBTU/DIPEA; propiolic acid coupled with HATU without DIPEA; details: whole synthesis, scale 1 g resin

Substance | isolated mass [1] [mg] | isolated mass [2] [mg]
LIVAGK-NH2 (N-acetyl, C-amide, propiolic acid alkyne functionalization) | 384 | –
LIVAGD-OH | – | 107.2
